The source of these data is US20210347821A1.

Chains of the proteins cited; added tags and fusions are not shown.
UniProt Q9EP80: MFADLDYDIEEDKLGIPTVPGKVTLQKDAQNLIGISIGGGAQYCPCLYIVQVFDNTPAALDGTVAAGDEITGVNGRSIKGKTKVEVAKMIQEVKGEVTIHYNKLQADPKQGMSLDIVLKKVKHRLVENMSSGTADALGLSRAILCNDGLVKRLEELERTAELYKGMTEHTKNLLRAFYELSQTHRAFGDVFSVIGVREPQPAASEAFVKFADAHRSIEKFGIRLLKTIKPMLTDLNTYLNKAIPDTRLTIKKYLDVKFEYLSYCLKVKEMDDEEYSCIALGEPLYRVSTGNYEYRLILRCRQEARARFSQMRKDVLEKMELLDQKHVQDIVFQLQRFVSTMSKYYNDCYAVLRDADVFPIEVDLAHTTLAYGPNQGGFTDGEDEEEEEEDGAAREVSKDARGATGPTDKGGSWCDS

Results are given in words; binding and its absence hold for the method and conditions named. Some results given as binding are weak or reduced against the parent protein; the word gives no strength.

B1: C5 peptide with X1 substituted to A (peptide)
peptide: AWLKV
B2: C5 peptide with X4 substituted to R (peptide)
peptide: HWLRV
B3: C5 peptide with X3 substituted to I (peptide)
peptide: HWIKV
B4: C5 peptide with X1 substituted to I (peptide)
peptide: IWLKV
B5: C5 peptide with X1 substituted to L (peptide)
peptide: LWLKV
B6: C5 peptide with X3 substituted to V (peptide)
peptide: HWVKV
B7: C5 peptide with X2 substituted to F (peptide)
peptide: HFLKV

The assay addresses Protein Interacting with C Kinase-1 (PICK1), purified recombinant (UniProt Q9EP80). Put plainly: fluorescence polarization competition, tracer 5FAM-DATC5.
For the molecule B1, the binding entry was “binds”. The result for B2 reads “binds”; that for B3, “binds”; that for B4, “binds”.

Take B5: the binding entry is on record as “binds”. In the case of B6 it was “binds”; in that of B7, “binds”.
